Measured values as given in US12350283B2, “Methods and compositions for treating motor neuron diseases” (UNIVERSITAT DE VALENCIA-ESTUDI GENERAL, priority 2019, dated 2025).
For some assays here: At least one compound was matched to its structure with a doubt left. Some of these results come from one statement about several compounds together.

How the values were obtained:
SOD1-G93A mice = assay: Rotarod test in SOD1 mice; format: in vivo, mouse; conditions: versus control untreated
Procedure: EH301 [Nicotinamide riboside (NR) and pterostilbene (PT)] was administered orally: 185 mg of nicotinamide riboside and 30 mg of pterostilbene/Kg×day (Estrela J M, De La Rubia J E, Dellinger R W. Treating and preventing motor neuron disease using nicotinamide riboside. PCT/US 18/32932, 2018).
Dexamethasone (DXM) was administered i.p. following sequential 4 weeks-cycle along the experimental time: 1 mg/Kg×day (1st week), 0.5 mg/Kg×day (2nd week), 0.25 mg/Kg×day (3rd week), 0.0 mg/Kg×day ([…]). The dose of 1 mg/Kg was selected based on Kurkowska-Jastrzebska I, Litwin T, Joniec I, Ciesielska A, Przybyłkowski A, Członkowski A, Członkowska A. Dexamethasone protects against dopaminergic neurons damage in a mouse model of Parkinson's disease. Int Immunopharmacol. 2004 October; 4(10-11):1307-18. […]
Functions of the test include evaluating balance, grip strength and motor coordination of the subjects; especially in testing the effect of experimental drugs. For this test (Rota Rod, Harvard Apparatus, Holliston, MA) each animal was given three trials and the maximum period (seconds) that it could remain on a rotating axle (3.5 cm diameter; speed of rotation: 15 rpm) without falling was measured. Each mouse was given up to three attempts for an arbitrary limit of 1200 seconds and the longest period was recorded. Changes over time in the different groups were monitored weekly. […]

FUS-R521C mice = assay: Survival of FUS-R521C mice; format: in vivo, mouse; conditions: FIGS. 3A-3C, end of study 45 weeks
Procedure: FUS-R521C mice (ALS model; transgene injected into B6SJL oocytes. Maintained on C57BL/6, therefore subsequent generations have a higher percentage of C57BL/6) were selected for methods examining the effects of the addition of acetylcysteine.
Acetylcysteine (NAC) was administered intraperitoneally (IP): 100 mg/kg per day, beginning on week 30, in experiments examining the effect of the addition of NAC.

C[C@@H]1C[C@H]2[C@@H]3CCC4=CC(=O)C=C[C@]4(C)[C@@]3(F)[C@@H](O)C[C@]2(C)[C@@]1(O)C(=O)CO [DXM, Dexamethasone]
motor coordination / motor-neuron dependent functions (in words) (SOD1-G93A mice): some improvement

NC(=O)c1ccc[n+]([C@@H]2O[C@H](CO)[C@@H](O)[C@H]2O)c1 [NR, Nicotinamide riboside]
survival (FUS-R521C mice): 28-32 weeks
